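Malaria parasite (P. falciparum) lines kept in red blood cells; parasite DNA is measured by SYBR Green fluorescence after lysis, 72 h after compound addition.
Each compound was titrated across a series from about 0.000037 to 29 µM.
The number is the fitted AC50, the concentration giving a half-maximal change in signal; a lower value means higher potency, whether the curve shows a decrease or an increase.
Calls follow the curve class and fit quality: every row here is inconclusive, covering signal-raising curves and weak, poorly fitted, partial or highest-dose-only inhibition curves.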

Values are in nM.
All entries here are filed as inconclusive.
These entries are mostly ones the record files as inconclusive; other results of the assay are not listed here.
A potency from a partial, single-point or poor curve is only a rough figure.

Compound | condition | Potency (nM) | remark
CC[C@H]1OC(=O)[C@H](C)[C@@H](O[C@H]2C[C@@](C)(OC)[C@@H](O)[C@H](C)O2)C(C)[C@@H](O[C@@H]2O[C@H](C)C[C@H](N(C)C)[C@@H]2O)[C@](C)(OC)C[C@@H](C)C(=O)[C@H](C)[C@@H](O)[C@]1(C)O (stereo partly specified) | PC15 | 1995 | inhibitor, full curve, poor fit
CC[C@H]1OC(=O)[C@H](C)[C@@H](O[C@H]2C[C@@](C)(OC)[C@@H](O)[C@H](C)O2)C(C)[C@@H](O[C@@H]2O[C@H](C)C[C@H](N(C)C)[C@@H]2O)[C@](C)(OC)C[C@@H](C)C(=O)[C@H](C)[C@@H](O)[C@]1(C)O (stereo partly specified) | CP191 | 10000 | inhibitor, partial curve
O=C(O)[C@@H](O)[C@@H](O)[C@H](O)[C@H](O)CO | CP260 | 15848 | inhibitor, single point
O=C(O)[C@@H](O)[C@@H](O)[C@H](O)[C@H](O)CO | CP215 | 11995 | inhibitor, single point
O=C(O)[C@@H](O)[C@@H](O)[C@H](O)[C@H](O)CO | parasite line A | 14125 | inhibitor, single point
O=C(O)[C@@H](O)[C@@H](O)[C@H](O)[C@H](O)CO | PC26 | 19011 | inhibitor, single point
O=C(O)[C@@H](O)[C@@H](O)[C@H](O)[C@H](O)CO | TAB165 | 17782 | inhibitor, single point
O=C(O)[C@@H](O)[C@@H](O)[C@H](O)[C@H](O)CO | CP247 | 17782 | inhibitor, single point
O=C(O)[C@@H](O)[C@@H](O)[C@H](O)[C@H](O)CO | P94_40 | 11220 | inhibitor, single point
O=C(O)[C@@H](O)[C@@H](O)[C@H](O)[C@H](O)CO | DFO2036 | 17782 | inhibitor, single point
O=C(O)[C@@H](O)[C@@H](O)[C@H](O)[C@H](O)CO | GB4 | 19011 | inhibitor, single point
O=C(O)[C@@H](O)[C@@H](O)[C@H](O)[C@H](O)CO | 3D7 | 17782 | inhibitor, single point
O=C(O)[C@@H](O)[C@@H](O)[C@H](O)[C@H](O)CO | TAB113 | 15848 | inhibitor, single point
O=C(O)[C@@H](O)[C@@H](O)[C@H](O)[C@H](O)CO | CP237 | 17782 | inhibitor, single point
O=C(O)[C@@H](O)[C@@H](O)[C@H](O)[C@H](O)CO | AS120 | 17782 | inhibitor, single point
O=C(O)[C@@H](O)[C@@H](O)[C@H](O)[C@H](O)CO | CP335 | 19011 | inhibitor, single point
O=C(O)[C@@H](O)[C@@H](O)[C@H](O)[C@H](O)CO | ATS95 | 17782 | inhibitor, single point
O=C(O)[C@@H](O)[C@@H](O)[C@H](O)[C@H](O)CO | CP286 | 17782 | inhibitor, single point
O=C(O)[C@@H](O)[C@@H](O)[C@H](O)[C@H](O)CO | ATS189 | 15848 | inhibitor, single point
O=C(O)[C@@H](O)[C@@H](O)[C@H](O)[C@H](O)CO | SC27B | 17782 | inhibitor, single point
O=C(O)[C@@H](O)[C@@H](O)[C@H](O)[C@H](O)CO | DIV14 | 16944 | inhibitor, single point
O=C(O)[C@@H](O)[C@@H](O)[C@H](O)[C@H](O)CO | CP305 | 15101 | inhibitor, single point
O=C(O)[C@@H](O)[C@@H](O)[C@H](O)[C@H](O)CO | DIV17 | 19011 | inhibitor, single point
O=C(O)[C@@H](O)[C@@H](O)[C@H](O)[C@H](O)CO | CP269 | 19011 | inhibitor, single point
O=C(O)[C@@H](O)[C@@H](O)[C@H](O)[C@H](O)CO | CP191 | 10000 | inhibitor, single point
O=C(O)[C@@H](O)[C@@H](O)[C@H](O)[C@H](O)CO | PAD | 11220 | inhibitor, single point
O=C(O)[C@@H](O)[C@@H](O)[C@H](O)[C@H](O)CO | FAB9 | 17782 | inhibitor, single point
O=C(O)[C@@H](O)[C@@H](O)[C@H](O)[C@H](O)CO | HB3 | 11220 | inhibitor, single point
O=C(O)[C@@H](O)[C@@H](O)[C@H](O)[C@H](O)CO | CP217 | 17782 | inhibitor, single point
O=C(O)[C@@H](O)[C@@H](O)[C@H](O)[C@H](O)CO | PC49 | 17782 | inhibitor, single point
O=C(O)[C@@H](O)[C@@H](O)[C@H](O)[C@H](O)CO | CP265 | 17782 | inhibitor, single point
O=C(O)[C@@H](O)[C@@H](O)[C@H](O)[C@H](O)CO | CP268 | 19011 | inhibitor, single point
O=C(O)[C@@H](O)[C@@H](O)[C@H](O)[C@H](O)CO | ECU | 10000 | inhibitor, single point
O=C(O)[C@@H](O)[C@@H](O)[C@H](O)[C@H](O)CO | DIV30 | 19011 | inhibitor, single point
Cc1cc(C(C#N)c2ccc(Cl)cc2)c(Cl)cc1NC(=O)c1cc(I)cc(I)c1O (stereo unspecified) | 7G8 | 7943 | inhibitor, partial curve
O=C(Nc1ccccc1)OC[C@H](CN1CCCCC1)OC(=O)Nc1ccccc1 | CP237 | 6310 | inhibitor, partial curve, poor fit
O=C(Nc1ccccc1)OC[C@H](CN1CCCCC1)OC(=O)Nc1ccccc1 | W2 | 5726 | inhibitor, single point
O=C(Nc1ccccc1)OC[C@H](CN1CCCCC1)OC(=O)Nc1ccccc1 | 7G8 | 3548 | inhibitor, partial curve
NC(=O)C(=O)N/N=C/c1ccc([N+](=O)[O-])o1 | CP305 | 19011 | inhibitor, single point
NC(=O)C(=O)N/N=C/c1ccc([N+](=O)[O-])o1 | CP201 | 19011 | inhibitor, single point
NC(=O)C(=O)N/N=C/c1ccc([N+](=O)[O-])o1 | CP203 | 19011 | inhibitor, single point
NC(=O)C(=O)N/N=C/c1ccc([N+](=O)[O-])o1 | GB4 | 16944 | inhibitor, single point

The last 3 entries again:

Compound	condition	Potency (nM)	remark
NC(=O)C(=O)N/N=C/c1ccc([N+](=O)[O-])o1	CP201	19011	inhibitor, single point
NC(=O)C(=O)N/N=C/c1ccc([N+](=O)[O-])o1	CP203	19011	inhibitor, single point
NC(=O)C(=O)N/N=C/c1ccc([N+](=O)[O-])o1	GB4	16944	inhibitor, single point

Data taken from PubChem BioAssay AID504749, deposited by NCATS (2011).